In patent US9814778B2, “Ionically crosslinked polyelectrolytes as underwater adhesives as controlled release vehicles” (The University of Toledo, priority 2014, dated 2017):
Some entries share one result that the patent states for a list of compounds. At least one compound was matched to its structure with a doubt left.

Assay: Dye release from dye-loaded complexes in 1×PBS at 37° C. (UV-Vis)
Assay type: physicochemical
Details: release from the gels, first week (FIGS. 7A-7B)
Protocol: The supernatant was removed from the microcentrifuge tube, and the inside of the tube was rinsed with DI water to ensure all excess supernatant was removed. The release medium, 1 ml of 1×PBS, was then added to the microcentrifuge tube. During the release evaluations, the contents of the microcentrifuge tube was mixed at 400 rpm in an Ependorf Thermomixer at 37° C. The old PBS solution was replaced with fresh PBS daily. UV-Vis spectroscopy was used to determine the amount of dye released within this one day interval. The concentration of dye in the PBS was determined using the absorbance of the solution as described above. These release studies were run until the amount of dye released in one day became so low that a discernable peak in the UV-Vis spectrum could not be obtained. The weight of the adhesives was also tracked during the release process using the procedure described above. Each release experiment was repeated thrice to ensure reproducibility. An additional release study was run (using the same complex/dye compositions) with tap water at room temperature as the release medium.
The released dye concentration in the PBS was determined using UV-Vis spectroscopy, with the PBS being replaced daily. This procedure was repeated until discernable UV-Vis peaks could no longer be obtained from the PBS samples in order to obtain release profiles. […]

| SMILES | payload released in the first week |
| --- | --- |
| CCN(Cc1cccc(S(=O)(=O)[O-])c1)c1ccc(C(=C2C=CC(=[N+](CC)Cc3cccc(S(=O)(=O)[O-])c3)C=C2)c2ccc(O)cc2S(=O)(=O)[O-])cc1.[Na+].[Na+] [Fast Green, Fast Green FCF] | 1-2% |
| CCN(CC)c1ccc2c(-c3ccccc3C(=O)O)c3ccc(=[N+](CC)CC)cc-3oc2c1.[Cl-] [Rhodamine B] | 1-2% |
